Assay results from article PMC6075780, “Interaction of lipoprotein QseG with sensor kinase QseE in the periplasm controls the phosphorylation state of the two-component system QseE/QseF in Escherichia coli” (PLoS Genetics, 2018).
Where a chain is given by its changes, count along the chain named. In names and notes the source's numbering stands. No constants are given. Whether binding was seen depends on the method and setting. For some of these results: In cells and extracts the contact can be indirect. Some binding calls cover weakened binding; strength is not graded here. For some of these results: Sequences can lack the tags named with a protein.

Key:
QseG-Strep [1] = biological target: T1, QseG-Strep (E. coli K-12, UniProt P0AD44 26-237, Cys26 predicted by the paper to be lipidated); assay: pull-down; bait and prey from two compatible plasmids in E. coli Z970 (1 mM IPTG, 0.2% arabinose, 3 h); cleared lysates with MagStrep type3 XT beads 60 min at 4°C, washed 4× with buffer W; Western blot
T1 sequence (looked up): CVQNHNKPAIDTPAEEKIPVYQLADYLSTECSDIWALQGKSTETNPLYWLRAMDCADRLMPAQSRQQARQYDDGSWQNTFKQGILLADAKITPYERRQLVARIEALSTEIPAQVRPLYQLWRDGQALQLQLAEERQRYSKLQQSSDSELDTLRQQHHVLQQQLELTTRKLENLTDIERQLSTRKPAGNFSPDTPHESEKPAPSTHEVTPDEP

QseG-Strep [2] = biological target: T1, QseG-Strep; assay: pull-down; ligand fishing by StrepTactin affinity chromatography; Strep-tagged bait made from a plasmid (1 mM IPTG, 1 h) in E. coli cells that carry the 3×FLAG-tagged prey on the chromosome; lysates on StrepTactin, eluates by Western blot with anti-FLAG antiserum
T25-QseE (E. coli K-12) = biological target: T2, T25-QseE (E. coli K-12) (UniProt P52101); assay: two-hybrid; BACTH for homodimerisation: T18 fusion against T25 fusion of the kinase in E. coli BTH101, 28°C, LB with 1 mM IPTG, β-galactosidase activity of stationary-phase cells
T2 sequence: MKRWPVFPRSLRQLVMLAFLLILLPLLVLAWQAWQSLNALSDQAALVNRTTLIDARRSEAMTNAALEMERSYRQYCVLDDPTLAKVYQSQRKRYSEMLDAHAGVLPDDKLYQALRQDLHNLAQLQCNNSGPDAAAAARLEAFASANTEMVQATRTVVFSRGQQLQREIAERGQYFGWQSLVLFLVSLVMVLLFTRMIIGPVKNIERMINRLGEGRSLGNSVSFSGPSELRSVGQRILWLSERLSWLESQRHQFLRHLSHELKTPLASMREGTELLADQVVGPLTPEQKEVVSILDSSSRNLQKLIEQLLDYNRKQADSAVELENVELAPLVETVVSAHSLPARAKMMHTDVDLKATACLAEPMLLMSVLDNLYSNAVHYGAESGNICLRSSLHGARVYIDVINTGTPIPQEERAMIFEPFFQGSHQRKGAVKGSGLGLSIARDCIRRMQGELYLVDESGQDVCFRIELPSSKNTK

[3] = biological target: T3, T18-TM_(oppB)-QseG (E. coli K-12) (UniProt P0AD44); assay: two-hybrid; modified BACTH for periplasmic interactions: T18-TM_(oppB) fusion against T25 fusion in E. coli BTH101, 28°C, LB with 1 mM IPTG, β-galactosidase activity of stationary-phase cells
T3 sequence: T1 sequence (looked up)

[4] = biological target: PhoQ (T25 fusion) (E. coli K-12) (UniProt P23837); assay: two-hybrid; BACTH for homodimerisation: T18 fusion against T25 fusion of the kinase in E. coli BTH101, 28°C, LB with 1 mM IPTG, β-galactosidase activity of stationary-phase cells
[5] = biological target: T4, CpxA (T25 fusion) (E. coli K-12), P0AE82; assay: as above; details: remark: other sources report otherwise
T4 chain: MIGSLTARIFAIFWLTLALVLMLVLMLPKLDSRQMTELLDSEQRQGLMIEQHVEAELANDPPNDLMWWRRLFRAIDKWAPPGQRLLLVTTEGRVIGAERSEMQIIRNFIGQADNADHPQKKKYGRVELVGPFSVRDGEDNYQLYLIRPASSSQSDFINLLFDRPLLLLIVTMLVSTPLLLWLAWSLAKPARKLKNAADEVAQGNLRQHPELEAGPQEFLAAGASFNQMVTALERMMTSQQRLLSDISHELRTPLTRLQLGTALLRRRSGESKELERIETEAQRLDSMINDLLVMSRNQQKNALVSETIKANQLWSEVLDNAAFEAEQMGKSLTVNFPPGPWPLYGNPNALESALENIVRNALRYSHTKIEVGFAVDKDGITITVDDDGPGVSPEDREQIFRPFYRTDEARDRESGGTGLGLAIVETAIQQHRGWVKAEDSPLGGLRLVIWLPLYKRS

B1: QseE-3×FLAG (protein, UniProt P52101 1-475)
chain: T2 sequence
binding (QseG-Strep [1]): binds | binding (QseG-Strep [2]): binds

B2: T25-QseE (protein, UniProt P52101 1-475)
chain: T2 sequence
binding (T25-QseE (E. coli K-12)): binds | binding [3]: binds

B3: T25-QseE-M5 (protein, UniProt P52101 1-475)
chain: T2 sequence with F19L, L21H, I22R, L23P, L24P
binding [3]: no binding

B4: QseE-S58N-3×FLAG (natural protein, E. coli K-12, UniProt P52101 1-475, looked up)
chain: T2 sequence with S58N
notes: Histidine kinase QseE of E. coli K-12 with the S58N exchange in the periplasmic loop; also called QseE-S58N variant; source: E. coli strain Z970, from plasmid pYG318-S58N, in lysate; not shown: 3×FLAG, C-terminal, kept
binding (T25-QseE (E. coli K-12)): binds | binding [3]: binds

B5: PhoQ (T25 fusion) (protein, UniProt P23837 1-486)
chain: MKKLLRLFFPLSLRVRFLLATAAVVLVLSLAYGMVALIGYSVSFDKTTFRLLRGESNLFYTLAKWENNKLHVELPENIDKQSPTMTLIYDENGQLLWAQRDVPWLMKMIQPDWLKSNGFHEIEADVNDTSLLLSGDHSIQQQLQEVREDDDDAEMTHSVAVNVYPATSRMPKLTIVVVDTIPVELKSSYMVWSWFIYVLSANLLLVIPLLWVAAWWSLRPIEALAKEVRELEEHNRELLNPATTRELTSLVRNLNRLLKSERERYDKYRTTLTDLTHSLKTPLAVLQSTLRSLRSEKMSVSDAEPVMLEQISRISQQIGYYLHRASMRGGTLLSRELHPVAPLLDNLTSALNKVYQRKGVNISLDISPEISFVGEQNDFVEVMGNVLDNACKYCLEFVEISARQTDEHLYIVVEDDGPGIPLSKREVIFDRGQRVDTLRPGQGVGLAVAREITEQYEGKIVAGESMLGGARMEVIFGRQHSAPKDE
binding [4]: binds | binding [3]: no binding

B6: PhoQ-3×FLAG (protein, UniProt P23837 1-486)
chain: B5 chain
binding (QseG-Strep [2]): no binding

B7: QseENTD (T25 fusion) (domain or fragment, UniProt P52101 1-250)
chain: MKRWPVFPRSLRQLVMLAFLLILLPLLVLAWQAWQSLNALSDQAALVNRTTLIDARRSEAMTNAALEMERSYRQYCVLDDPTLAKVYQSQRKRYSEMLDAHAGVLPDDKLYQALRQDLHNLAQLQCNNSGPDAAAAARLEAFASANTEMVQATRTVVFSRGQQLQREIAERGQYFGWQSLVLFLVSLVMVLLFTRMIIGPVKNIERMINRLGEGRSLGNSVSFSGPSELRSVGQRILWLSERLSWLESQR
binding [3]: no binding

B8: CpxA (T25 fusion), P0AE82 1-457 (protein)
chain: T4 chain
binding [5]: binds

B9: CpxA (T25 fusion) (protein, UniProt P0AE82 1-457)
chain: T4 chain
binding [3]: no binding
